# Results from cells or extracts need not show a direct contact. For some of these results: A negative result means that nothing was seen under these conditions. For some of these results: Protein sequences can lack the tags named with them. For some of these results: The exact form of at least one protein or probe is not confirmed.
# By UniProt entry, the sequences of proteins in these tests, tags left out. Where a name states a change or a piece, a line headed by the entry shows the natural chain unless it says otherwise.
# UniProt Q8CF90: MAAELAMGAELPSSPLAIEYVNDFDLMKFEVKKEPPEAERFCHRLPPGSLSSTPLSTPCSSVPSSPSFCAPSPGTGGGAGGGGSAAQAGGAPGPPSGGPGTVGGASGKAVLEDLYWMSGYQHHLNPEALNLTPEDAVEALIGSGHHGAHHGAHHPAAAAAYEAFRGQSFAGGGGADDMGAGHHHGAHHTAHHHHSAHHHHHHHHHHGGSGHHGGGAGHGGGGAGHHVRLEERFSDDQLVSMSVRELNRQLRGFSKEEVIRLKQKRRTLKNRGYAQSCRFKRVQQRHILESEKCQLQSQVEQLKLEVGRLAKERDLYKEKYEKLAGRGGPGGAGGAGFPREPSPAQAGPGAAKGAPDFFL
# UniProt P54841: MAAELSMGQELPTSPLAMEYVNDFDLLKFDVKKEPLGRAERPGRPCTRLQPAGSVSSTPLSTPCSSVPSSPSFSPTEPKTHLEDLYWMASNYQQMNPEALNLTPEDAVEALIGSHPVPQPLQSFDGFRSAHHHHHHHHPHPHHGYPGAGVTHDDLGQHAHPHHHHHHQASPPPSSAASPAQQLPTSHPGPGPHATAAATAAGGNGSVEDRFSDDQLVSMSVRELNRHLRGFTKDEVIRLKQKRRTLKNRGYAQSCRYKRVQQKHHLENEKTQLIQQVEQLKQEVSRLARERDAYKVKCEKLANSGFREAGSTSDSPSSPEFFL
# Experiments:
# [1] = molecular target: RIPE3b1 activator (MafA, endogenous) (Mus musculus) (UniProt Q8CF90); assay: EMSA; details: protein in an extract, protein details: beta cell line nuclear extract (betaTC-3, Min6), label: 32P
# [2] = molecular target: RIPE3b1 activator (MafA, endogenous) (Mus musculus) (UniProt Q8CF90); assay: pull-down; details: oligonucleotide trapping, second affinity step; protein in an extract; protein details: beta cell line nuclear extract (betaTC-3, Min6)
# [3] = molecular target: MafA (mouse L-Maf, RIPE3b1 activator) (Mus musculus) (UniProt Q8CF90); assay: competition with a labelled probe; details: 10x competitor did not compete; protein in a lysate after overexpression; variant of C1/RIPE3b1 (rat insulin II -126/-101)
# [4] = molecular target: MafB (Mus musculus) (UniProt P54841); assay: competition with a labelled probe; details: 10x competitor did not compete; protein in a lysate after overexpression; variant of C1/RIPE3b1 (rat insulin II -126/-101)
# [5] = molecular target: T1, c-Maf (Mus musculus) (UniProt P54843); assay: competition with a labelled probe; details: 10x competitor did not compete; protein in a lysate after overexpression; variant of C1/RIPE3b1 (rat insulin II -126/-101)
# T1 sequence (looked up, limits assumed): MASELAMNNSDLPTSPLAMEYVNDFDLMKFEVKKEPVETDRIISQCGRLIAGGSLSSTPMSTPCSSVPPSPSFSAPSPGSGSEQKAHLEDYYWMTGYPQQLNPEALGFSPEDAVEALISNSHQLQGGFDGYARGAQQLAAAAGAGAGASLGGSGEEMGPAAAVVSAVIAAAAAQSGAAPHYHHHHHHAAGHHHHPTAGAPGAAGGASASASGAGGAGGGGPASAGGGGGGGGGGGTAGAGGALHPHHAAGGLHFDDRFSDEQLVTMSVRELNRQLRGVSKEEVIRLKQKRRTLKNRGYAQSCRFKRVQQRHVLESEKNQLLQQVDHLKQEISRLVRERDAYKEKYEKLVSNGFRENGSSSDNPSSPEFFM
# [6] = molecular target: MafA (mouse L-Maf, RIPE3b1 activator) (Mus musculus) (UniProt Q8CF90); assay: EMSA; details: HeLa nuclear extract, 100 mM NaCl, 4 C; protein in a lysate after overexpression; label: 32P
# [7] = molecular target: MafB (Mus musculus) (UniProt P54841); assay: EMSA; details: HeLa nuclear extract, 100 mM NaCl, 4 C; protein in a lysate after overexpression; label: 32P
# [8] = molecular target: T1, c-Maf (Mus musculus); assay: EMSA; details: HeLa nuclear extract, 100 mM NaCl, 4 C; protein in a lysate after overexpression; label: 32P
sequence,measurement,setting,value
AGCTTAAAGCACAGCAAAAATATTAT (double strand) [pdx-1 B5],binding result,[1]; variant of pdx-1 B4/5,no binding
AGCTTCTTTTTGCAAAGCACAGCAAAAAT (double strand) [pdx-1 B4/5],binding result,[1],binds
TCTTTTTGCAAAGCACAGCAAAAA (double strand) [pdx-1 -2106/-2083],binding result,[2],binds
TGGAAACTGCAGCTTACTACCCTCTG (double strand) [C1/RIPE3b1 -111/-108 mutant],binding result,[3],no binding
same,binding result,[4],no binding
same,binding result,[5],no binding
TGGAAACTGCAGCTTCAGCCCCTCTG (double strand) [C1/RIPE3b1 (rat insulin II -126/-101)],binding result,[6],binds
same,binding result,[7],binds
same,binding result,"[1]; supershifted by anti-Maf, also South-Western",binds
same,binding result,[8],binds
